The test system of this assay is primary human hepatic stellate cells (donor 1). Nature of the assay: percent Bodipy-positive cells; higher = more lipid droplet accumulation. Conditions: 48 h.
Where [1] appears, read: library stock concentration: 3.33 mM.
Where [2] appears, read: library stock concentration: 10 mM.
The mark [3] stands for this setting: library stock concentration: 1 mM.

Molecules are shown by their SMILES. “And” between values parts separate entries of the source, which are not always exact repeats. Equal entries are not always repeated. Structures can show the parent of a compound that is named as a salt. ± gives the standard deviation of the averaged measurements. The list shows a part of the results. Part of the spread comes from offsets between plates or batches.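 Culture-activated primary human stellate myofibroblasts, where regained lipid droplets signal inactivation. Value: share of Hoechst-counted cells above a per-plate Bodipy cutoff, in duplicate wells, with DMSO negative and nortriptyline positive controls on each plate. Hits: a control-normalized score above the plate's top-tenth-percentile nortriptyline wells, or one of a plate's three best wells. Final well concentrations are not given.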

Regarding `Brc1ccc(C2CN3CCSC3=N2)cc1` (single isomer, unassigned; (-)) [(-)-p-Bromotetramisole Oxalate], the “percent Bodipy-positive cells” value reads like this: under setting [1], 30.6 ± 4.4%; under setting [2], 56 ± 9.3%. Take `Cc1cc(Nc2cc(CN3CCOCC3)c3nc(C)c(Cc4ccc(Cl)cc4F)n3n2)n[nH]1`: the “percent Bodipy-positive cells” value is 18.5 ± 2.4% under setting [1] and 98.4 ± 2.2% under setting [2].

For `CCCCCCCCc1ccc(CCC(N)(CO)CO)cc1.Cl` [Fingolimod (FTY720) HCl], under setting [1], the “percent Bodipy-positive cells” value was 97.54 ± 0.16%. Turning to `NC(C(=O)O)c1ccc(C(=O)O)c(C(=O)O)c1` (racemic), the “percent Bodipy-positive cells” value under setting [2] was determined as 5.87 ± 3.4%. As to `O=C(O)CCC/C=C\C[C@H]1[C@@H](O)CC(=O)[C@@H]1/C=C/[C@@H](O)COc1cccc(C(F)(F)F)c1` [11-keto Fluprostenol], the “percent Bodipy-positive cells” value under setting [3] was 23.23 ± 0.21%. With `CCCCCS(=O)(=O)CCCCCCCCCCn1c(-c2ccc(O)cc2)c(C)c2cc(O)ccc21`, under setting [2], the “percent Bodipy-positive cells” value stood at 9.87 ± 1.8%. On to `COc1cc2c(Oc3ccc4[nH]c(C)cc4c3F)ncnc2cc1OCCCN1CCCC1` [Cediranib (AZD2171)], for which the “percent Bodipy-positive cells” value under setting [1] was determined as 84.1 ± 5%. As for `O=C1c2ccccc2CCC1CNCCc1ccc(O)cc1` (centres undefined) [HEAT hydrochloride], under setting [2], the “percent Bodipy-positive cells” value is 77.7 ± 26%. Take `O=C(O)c1ccc(O)c2ncccc12`: the “percent Bodipy-positive cells” value came to 25 ± 3.7% under setting [1] and 46.2 ± 12% under setting [2]. Regarding `COc1cc2ncnc(Nc3ccc(O)c(Br)c3)c2cc1OC` [JAK3 Inhibitor II], the “percent Bodipy-positive cells” value under setting [1] is 10.8 ± 3.5%. In the case of `COc1cc2ncnc(Nc3ccc(O)c(Br)c3)c2cc1OC`, the “percent Bodipy-positive cells” value stood at 5.44 ± 2% under setting [1] and 25.2 ± 16% under setting [2].

In the case of `COCCCC/C(=N\OCCN)c1ccc(C(F)(F)F)cc1.O=C(O)/C=C\C(=O)O` [Fluvoxamine maleate], the “percent Bodipy-positive cells” value under setting [2] turned out to be 95.1 ± 3%.

Turning to `COc1cc(-c2cc(-c3cccc(O)c3)cnc2N)cc(OC)c1OC`, the “percent Bodipy-positive cells” value is, setting by setting: under setting [1], 18.2 ± 6.5%; under setting [2], 58.3 ± 26%. Regarding `C#CC1(O)CC[C@H]2[C@@H]3CCC4=CC(=O)CC[C@@H]4[C@H]3CC[C@@]21CC` (some centres undefined) [Norgestrel], the “percent Bodipy-positive cells” value came to 6.204 ± 0.022% under setting [3] and 13.9 ± 1.5% under setting [2]. As to `CCCC(=O)Nc1cccc(NC(=O)c2ccccc2Br)c1`, the “percent Bodipy-positive cells” value worked out at 11.1 ± 1.1% under setting [1] and 29.1 ± 6% under setting [2]. As to `CCCCC/C=C\C=C1\C(=O)CC[C@@H]1C/C=C\CCCC(=O)O`, the “percent Bodipy-positive cells” value under setting [3] was 14.2 ± 3.4%. For the compound `CO[C@H]1C[C@@H]2CC[C@@H](C)[C@@](O)(O2)C(=O)C(=O)N2CCCC[C@H]2C(=O)O[C@H]([C@H](C)C[C@@H]2CC[C@H](n3cnnn3)[C@H](OC)C2)CC(=O)[C@H](C)/C=C(\C)[C@@H](O)[C@@H](OC)C(=O)[C@H](C)C[C@H](C)/C=C/C=C/C=C/1C` [Zotarolimus(ABT-578)], the “percent Bodipy-positive cells” value was 20.712 ± 0.0028% under setting [1] and 43.5 ± 8.3% under setting [2]. As to `CO[C@H]1C=CC=C(C)C(=O)NC2=CC(=O)C(NCCN(C)C)=C(C[C@@H](C)C[C@H](OC)[C@H](O)[C@@H](C)C=C(C)[C@@H]1OC(N)=O)C2=O.Cl` [17-DMAG (Alvespimycin) HCl], the “percent Bodipy-positive cells” value under setting [2] stood at 87.1 ± 5%. For `CCCOc1ccc(C=C2SC(=O)NC2=O)cc1`, the “percent Bodipy-positive cells” value was determined as 9.73 ± 7% (library stock concentration: 80 uM), 14.1 ± 3.2% (library stock concentration: 400 uM), 7.7 ± 0.18% (library stock concentration: 2 mM) and 4.6 ± 0.34% under setting [2]. For `CC/C=C\C/C=C\C/C=C\CCCCCCCC(=O)O` [.alpha.-Linolenic Acid], the “percent Bodipy-positive cells” value under setting [3] was determined as 7.1 ± 0.98%. Turning to `CC/C=C\C/C=C\C/C=C\CCCCCCCC(=O)O` [Linolenic acid (18:3 n-3)], under setting [3], the “percent Bodipy-positive cells” value worked out at 10.1 ± 10%. As for `CC[C@H](C)C(=O)O[C@H]1C[C@H](O)C=C2C=C[C@H](C)[C@H](CC[C@@H](O)C[C@@H](O)CC(=O)O)[C@H]21` [Pravastatin sodium], the “percent Bodipy-positive cells” value under setting [1] was 9.85 ± 0.34%; the “percent Bodipy-positive cells” value (library stock concentration: 4.5 mM) turned out to be 14.9 ± 0.5%; the “percent Bodipy-positive cells” value under setting [2] is 33.7% and 44.7%. Consider `CC[C@H](C)C(=O)O[C@H]1C[C@H](O)C=C2C=C[C@H](C)[C@H](CC[C@@H](O)C[C@@H](O)CC(=O)O)[C@H]21` [PRAVASTATIN Sodium], for which the “percent Bodipy-positive cells” value (library stock concentration: 9.5 mM) stood at 6.76 ± 3.1%.

As for `CC[C@H](C)C(=O)O[C@H]1C[C@H](O)C=C2C=C[C@H](C)[C@H](CC[C@@H](O)C[C@@H](O)CC(=O)O)[C@H]21` [Pravastatin sodium salt], under setting [2], the “percent Bodipy-positive cells” value came to 4.94 ± 0.58%. Regarding `CCCc1c(OCCCOc2ccc(OCC(=O)O)cc2)ccc(C(C)=O)c1O`, under setting [2], the “percent Bodipy-positive cells” value is 32.7% and 8.58%.

For the compound `O=C1CC2(CCCC2)CC(=O)N1CCCCNCC1COc2ccccc2O1` (centres undefined), under setting [2], the “percent Bodipy-positive cells” value is 29 ± 1.9%.

Consider `CC1=C(C(=O)O)N2C(=O)[C@@H](NC(=O)[C@H](N)c3ccccc3)[C@H]2SC1` [Cephalexin monohydrate], for which the “percent Bodipy-positive cells” value was found to be 25.2 ± 3.8%. The “percent Bodipy-positive cells” value under setting [2] worked out at 26 ± 5.8%. Turning to `CC1=C(C(=O)O)N2C(=O)[C@@H](NC(=O)[C@H](N)c3ccccc3)[C@H]2SC1` [Cephalexin hydrate], under setting [2], the “percent Bodipy-positive cells” value was found to be 55.4 ± 2.2%. For `CC1=C(C(=O)O)N2C(=O)[C@@H](NC(=O)[C@H](N)c3ccccc3)[C@H]2SC1` [Cephalexin], the “percent Bodipy-positive cells” value is 6.32 ± 2% under setting [1]; 10.8 ± 0.89% (library stock concentration: 5.8 mM); 14.4% and 25.5% under setting [2]. On to `Fc1ccc([C@@H]2CCNC[C@H]2COc2ccc3c(c2)OCO3)cc1.O=C(O)/C=C\C(=O)O` [Paroxetine maleate], for which the “percent Bodipy-positive cells” value under setting [2] stood at 99.05 ± 0.55%. As to `CCCCC/C=C\C/C=C\CCCCCCCC(=O)OCC(O)CO` (centres undefined) [1-Linoleoyl Glycerol], under setting [3], the “percent Bodipy-positive cells” value is 13.5 ± 10%. Consider `CC1(C)CC(=O)C(C2C3=C(CC(C)(C)CC3=O)Oc3ccccc32)C(=O)C1` (centres undefined), for which the “percent Bodipy-positive cells” value under setting [2] is 8.49 ± 0.19%.

As to `CC(C)(C)OC(=O)Nc1ccc(-c2cc(C(=O)NCCCCCCC(=O)NO)no2)cc1`, the “percent Bodipy-positive cells” value under setting [3] worked out at 20.4 ± 5.1%.
